Laboratory results from article PMC5339217.
These are yes or no findings as the source states them, for the method shown. Binding seen in cells or lysates may run through a third protein. Some results given as binding are weak or reduced against the parent protein; the word gives no strength.

Amino acid sequences for entries named in this document (tags omitted). Residues count along the entry.
UniProt P11021, residues 19-654: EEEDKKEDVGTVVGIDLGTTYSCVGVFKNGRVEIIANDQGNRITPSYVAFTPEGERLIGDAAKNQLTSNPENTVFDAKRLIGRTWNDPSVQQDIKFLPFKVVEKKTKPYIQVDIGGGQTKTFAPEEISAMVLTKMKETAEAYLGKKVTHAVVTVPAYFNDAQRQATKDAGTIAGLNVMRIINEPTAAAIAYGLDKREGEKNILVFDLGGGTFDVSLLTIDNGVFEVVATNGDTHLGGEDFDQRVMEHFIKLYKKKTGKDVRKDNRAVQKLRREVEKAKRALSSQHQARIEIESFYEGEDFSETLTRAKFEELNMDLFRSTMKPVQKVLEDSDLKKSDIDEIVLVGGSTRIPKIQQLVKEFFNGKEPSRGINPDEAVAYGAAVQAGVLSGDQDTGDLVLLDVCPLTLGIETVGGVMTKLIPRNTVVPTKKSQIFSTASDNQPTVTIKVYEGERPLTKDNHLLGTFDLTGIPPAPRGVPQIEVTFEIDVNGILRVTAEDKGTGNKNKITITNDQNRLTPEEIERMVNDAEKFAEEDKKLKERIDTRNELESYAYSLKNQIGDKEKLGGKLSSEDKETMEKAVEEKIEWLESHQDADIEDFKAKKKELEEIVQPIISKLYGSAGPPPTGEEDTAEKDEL

Biological target: BiP (UniProt P11021)
Experiment: co-IP; coprecipitation of INPP5K (wild-type and disease-related mutants) and BiP; bait, cells and conditions are not told in the text shown (Figure S10)

B1: inositol polyphosphate-5-phosphatase K (INPP5K), wild-type (enzyme, UniProt Q9BT40-1 1-448)
chain: MSSRKLSGPKGRRLSIHVVTWNVASAAPPLDLSDLLQLNNRNLNLDIYVIGLQELNSGIISLLSDAAFNDSWSSFLMDVLSPLSFIKVSHVRMQGILLLVFAKYQHLPYIQILSTKSTPTGLFGYWGNKGGVNICLKLYGYYVSIINCHLPPHISNNYQRLEHFDRILEMQNCEGRDIPNILDHDLIIWFGDMNFRIEDFGLHFVRESIKNRCYGGLWEKDQLSIAKKHDPLLREFQEGRLLFPPTYKFDRNSNDYDTSEKKRKPAWTDRILWRLKRQPCAGPDTPIPPASHFSLSLRGYSSHMTYGISDHKPVSGTFDLELKPLVSAPLIVLMPEDLWTVENDMMVSYSSTSDFPSSPWDWIGLYKVGLRDVNDYVSYAWVGDSKVSCSDNLNQVYIDISNIPTTEDEFLLCYYSNSLRSVVGISRPFQIPPGSLREDPLGEAQPQI
binding: binds
